The list shows a part of the results. Further columns of the screen follow, without active or inactive calls. Most of these compounds were active or inconclusive in the main read-out, so they are no random draw. Potencies come from curve fits of mixed quality, noted in brackets.
Assay: qHTS Assay to Find Inhibitors of Chronic Active B-Cell Receptor Signaling
Conditions: ABC-DLBCL IkBa-CBG/CBR reporter, luminescence ratio (green luciferase fused to IkBa over red control in TMD8 lymphoma cells), 4 h
Method in brief: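 TMD8 human ABC-DLBCL cells with doxycycline-inducible IκBα–green luciferase fusion and unfused red luciferase, in 0.5% FBS medium; compounds up to 46 uM, 4 h at 37C. Green/red luminescence ratio, filter-overlap corrected, fitted to concentration-response curves.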

[1] = measured here: CBR red luminescence, cell number

Compound	AC50 [1]	AC50 (measured here: IkBa-CBG green luminescence)
COc1ccc2c(=O)c3c(=O)n(Cc4ccco4)c(-c4cc(OC)c(OC)c(OC)c4)nc3oc2c1	6.51 µM [falling, partial curve]	
COc1cc(/C=C(/C#N)C(=O)NCc2ccccc2)cc(OC)c1OC	5.62 µM [falling, single point]	
O=C(O)CN1C(=O)/C(=C\c2ccccc2OCc2ccc(Cl)cc2)SC1=S	7.08 µM [rising, partial curve, poor fit]	
O=C(CCl)Nc1c(C(=O)Nc2ccc3c(c2)OCCO3)oc2ccccc12	12.6 µM [falling, partial curve]	
O=C(/C=C/c1ccccc1)NC(=S)NNC(=O)c1ccco1	16.4 µM [falling, single point]	
Cc1ccc(CNC(=O)c2cc3c(=O)n(C)c4ccccc4c3n2C)cc1	2.06 µM [falling, partial curve, poor fit]	
CCCCCCCNC(=O)C1(CC2CC(c3ccc(Cl)cc3)=NO2)CCN(C(=O)OC(C)(C)C)CC1 (configuration not stated)	2.51 µM [rising, single point]	
CC(C)c1ccc(NC(=O)CSC2=Nc3ccccc3C3=NC(CC(=O)NCc4ccc(F)cc4)C(=O)N23)cc1 (configuration not stated)	10 µM [falling, partial curve]	12.6 µM [rising, partial curve, poor fit]
Cc1cc(C(=O)NP(=O)(N2CCOCC2)N2CCOCC2)c(C)n1-c1ccc(Br)cc1	13 µM [falling, partial curve, poor fit]	
COc1ccc(C2=NN(C(=O)CSc3nnc(C)c(=O)n3N)C(c3ccco3)C2)cc1 (configuration not stated)	17.8 µM [rising, partial curve, poor fit]	
CN(C)S(=O)(=O)N1CCN(c2ccc(Cl)cc2)CC1	14.6 µM [rising, partial curve, poor fit]	
CC[n+]1c(/C=C/c2cc([N+](=O)[O-])ccc2O)ccc2ccccc21	11.2 µM [falling, partial curve, poor fit]	
CSc1ccccc1-c1nnc(-c2ccc(Cl)c(Cl)c2)o1	0.316 µM [rising, full curve, poor fit]	
O=C(N/N=C/c1ccc([N+](=O)[O-])cc1)c1ccc(NS(=O)(=O)c2cccs2)cc1	8.2 µM [falling, partial curve]	
O=C(COC(=O)CNC(=O)c1cccs1)Nc1ccc(C(F)(F)F)cc1[N+](=O)[O-]	25.9 µM [rising, partial curve, poor fit]	
O=C(NCc1ccccc1Br)c1ccncc1	17.8 µM [falling, single point]	

A different layout for part of the listing above.
Compound,AC50 [1],AC50 (measured here: IkBa-CBG green luminescence)
CN(C)S(=O)(=O)N1CCN(c2ccc(Cl)cc2)CC1,"14.6 µM [rising, partial curve, poor fit]",
CC[n+]1c(/C=C/c2cc([N+](=O)[O-])ccc2O)ccc2ccccc21,"11.2 µM [falling, partial curve, poor fit]",
